Experimental data published in publication PMC4346799.
Results are given in words; binding and its absence hold for the method and conditions named. Binding seen in cells or lysates may run through a third protein. Some entries that bind do so weakly or less than the wild type. Tags and fused reporters may be left off the sequences shown.

By UniProt entry, the sequences of proteins in these tests, tags left out.
UniProt Q9NV70: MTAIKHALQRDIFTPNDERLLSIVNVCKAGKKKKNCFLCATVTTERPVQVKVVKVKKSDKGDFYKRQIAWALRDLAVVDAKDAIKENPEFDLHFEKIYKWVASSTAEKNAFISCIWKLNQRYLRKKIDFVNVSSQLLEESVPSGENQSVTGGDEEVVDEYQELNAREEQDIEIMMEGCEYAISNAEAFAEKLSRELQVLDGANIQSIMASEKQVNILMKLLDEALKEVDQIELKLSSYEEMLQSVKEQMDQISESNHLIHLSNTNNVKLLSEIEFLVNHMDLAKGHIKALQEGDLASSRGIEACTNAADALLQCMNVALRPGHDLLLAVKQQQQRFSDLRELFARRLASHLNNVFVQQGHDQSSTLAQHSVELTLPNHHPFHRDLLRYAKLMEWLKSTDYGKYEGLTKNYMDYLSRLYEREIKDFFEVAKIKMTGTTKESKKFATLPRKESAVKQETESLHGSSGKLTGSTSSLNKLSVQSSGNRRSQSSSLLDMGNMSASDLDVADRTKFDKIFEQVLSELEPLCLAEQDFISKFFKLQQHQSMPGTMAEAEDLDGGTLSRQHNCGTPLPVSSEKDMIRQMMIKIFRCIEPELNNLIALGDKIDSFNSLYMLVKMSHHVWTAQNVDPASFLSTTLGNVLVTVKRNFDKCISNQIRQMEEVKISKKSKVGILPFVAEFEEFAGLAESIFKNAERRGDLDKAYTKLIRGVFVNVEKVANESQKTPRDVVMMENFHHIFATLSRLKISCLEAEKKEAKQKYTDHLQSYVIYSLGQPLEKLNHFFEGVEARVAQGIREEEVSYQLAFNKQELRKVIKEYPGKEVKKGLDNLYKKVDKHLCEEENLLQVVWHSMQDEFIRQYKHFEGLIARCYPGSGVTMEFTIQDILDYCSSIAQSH
UniProt Q14643: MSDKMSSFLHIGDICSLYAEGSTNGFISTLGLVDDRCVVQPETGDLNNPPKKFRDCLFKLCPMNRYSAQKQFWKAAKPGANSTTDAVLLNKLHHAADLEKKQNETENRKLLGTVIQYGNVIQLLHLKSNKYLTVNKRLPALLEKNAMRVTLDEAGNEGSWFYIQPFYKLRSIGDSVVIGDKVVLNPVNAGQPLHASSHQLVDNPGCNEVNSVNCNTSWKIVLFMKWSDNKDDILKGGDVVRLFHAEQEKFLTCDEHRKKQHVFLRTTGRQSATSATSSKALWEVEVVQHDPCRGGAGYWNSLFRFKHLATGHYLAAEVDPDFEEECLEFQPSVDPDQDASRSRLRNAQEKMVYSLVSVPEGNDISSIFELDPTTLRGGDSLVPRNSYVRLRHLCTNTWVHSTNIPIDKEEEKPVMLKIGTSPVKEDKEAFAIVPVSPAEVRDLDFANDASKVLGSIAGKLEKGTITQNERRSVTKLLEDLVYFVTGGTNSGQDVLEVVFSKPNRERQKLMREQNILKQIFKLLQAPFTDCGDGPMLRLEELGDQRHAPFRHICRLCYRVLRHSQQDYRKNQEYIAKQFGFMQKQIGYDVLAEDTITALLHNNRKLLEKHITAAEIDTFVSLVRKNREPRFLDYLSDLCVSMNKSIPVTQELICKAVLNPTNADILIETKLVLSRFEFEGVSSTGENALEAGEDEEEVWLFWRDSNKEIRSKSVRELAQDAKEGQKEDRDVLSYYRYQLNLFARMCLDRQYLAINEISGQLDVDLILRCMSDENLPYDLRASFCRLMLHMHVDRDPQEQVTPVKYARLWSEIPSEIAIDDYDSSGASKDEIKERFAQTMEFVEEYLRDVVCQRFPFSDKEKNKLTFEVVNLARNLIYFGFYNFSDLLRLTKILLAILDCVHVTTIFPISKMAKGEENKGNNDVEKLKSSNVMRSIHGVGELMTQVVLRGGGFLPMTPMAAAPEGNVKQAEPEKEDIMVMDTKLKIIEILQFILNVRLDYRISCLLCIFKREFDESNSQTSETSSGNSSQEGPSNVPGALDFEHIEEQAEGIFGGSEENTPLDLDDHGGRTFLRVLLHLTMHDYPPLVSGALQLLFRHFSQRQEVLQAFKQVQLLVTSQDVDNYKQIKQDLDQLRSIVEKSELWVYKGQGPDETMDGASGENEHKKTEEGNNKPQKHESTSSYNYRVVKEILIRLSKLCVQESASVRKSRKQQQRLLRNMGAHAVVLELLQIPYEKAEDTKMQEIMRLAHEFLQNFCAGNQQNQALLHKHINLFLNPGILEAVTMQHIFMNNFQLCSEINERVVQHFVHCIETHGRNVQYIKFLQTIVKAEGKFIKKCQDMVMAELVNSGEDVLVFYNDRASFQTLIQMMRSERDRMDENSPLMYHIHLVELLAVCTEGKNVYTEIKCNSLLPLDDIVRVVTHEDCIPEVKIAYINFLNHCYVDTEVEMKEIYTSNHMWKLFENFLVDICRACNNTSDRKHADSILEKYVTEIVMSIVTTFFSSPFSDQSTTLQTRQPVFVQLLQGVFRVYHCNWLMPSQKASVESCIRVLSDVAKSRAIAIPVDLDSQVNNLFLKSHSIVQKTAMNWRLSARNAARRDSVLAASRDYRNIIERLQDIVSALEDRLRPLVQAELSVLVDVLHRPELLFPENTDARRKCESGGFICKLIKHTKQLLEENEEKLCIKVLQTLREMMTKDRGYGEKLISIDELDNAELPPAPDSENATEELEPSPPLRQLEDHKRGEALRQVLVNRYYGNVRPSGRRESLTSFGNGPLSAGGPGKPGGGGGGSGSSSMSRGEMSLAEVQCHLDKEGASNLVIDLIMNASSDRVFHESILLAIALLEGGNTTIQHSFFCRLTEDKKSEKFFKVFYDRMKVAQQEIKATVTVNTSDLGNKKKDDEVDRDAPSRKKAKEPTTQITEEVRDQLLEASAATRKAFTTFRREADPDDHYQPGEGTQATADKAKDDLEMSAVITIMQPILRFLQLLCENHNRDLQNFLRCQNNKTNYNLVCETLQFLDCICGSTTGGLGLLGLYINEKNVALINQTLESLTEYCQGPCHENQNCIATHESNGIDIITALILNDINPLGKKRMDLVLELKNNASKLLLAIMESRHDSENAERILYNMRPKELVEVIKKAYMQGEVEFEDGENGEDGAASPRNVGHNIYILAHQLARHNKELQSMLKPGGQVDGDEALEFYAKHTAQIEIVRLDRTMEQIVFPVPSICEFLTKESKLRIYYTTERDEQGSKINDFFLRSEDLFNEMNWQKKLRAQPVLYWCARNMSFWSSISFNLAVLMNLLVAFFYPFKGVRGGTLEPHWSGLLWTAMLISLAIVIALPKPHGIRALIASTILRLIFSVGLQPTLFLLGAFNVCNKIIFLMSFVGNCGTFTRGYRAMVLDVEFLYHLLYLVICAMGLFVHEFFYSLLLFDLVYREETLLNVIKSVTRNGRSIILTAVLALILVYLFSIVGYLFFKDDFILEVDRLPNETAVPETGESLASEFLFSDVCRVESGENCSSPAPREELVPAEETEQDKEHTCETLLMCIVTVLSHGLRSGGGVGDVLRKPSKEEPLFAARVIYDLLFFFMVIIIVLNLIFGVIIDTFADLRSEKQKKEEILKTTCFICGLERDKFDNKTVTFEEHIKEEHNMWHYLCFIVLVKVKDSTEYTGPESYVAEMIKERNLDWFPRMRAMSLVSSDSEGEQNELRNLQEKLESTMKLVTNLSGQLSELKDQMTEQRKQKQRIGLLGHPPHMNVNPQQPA

Experiments:
GFP-EXOC1 [1] = target: GFP-EXOC1 (UniProt Q9NV70); experiment: co-IP; transfected HEK293 cells, lysed by sonication in Nonidet P-40 lysis buffer (50 mM Tris pH 8.0, 150 mM NaCl, 1% NP-40, 5 mM EDTA); antibody 10-15 h at 4°C, protein-A agarose
[2] = target: inositol-1,4,5-trisphosphate receptor 1 (IP3R1), endogenous (human (endogenous in HEK293)) (UniProt Q14643); experiment: co-IP; HEK293 lysate; endogenous IP3R1 precipitated with goat anti-IP3R1 antibodies, in Nonidet P-40 buffer with 0.5% Triton X-100 added; also done after EXOC1 knockdown (interaction decreased)
GFP-EXOC1 [3] = target: GFP-EXOC1 (UniProt Q9NV70); experiment: co-IP; subcellular fractionation of transfected HEK293 cells followed by co-immunoprecipitation; 400 μg of ER and 1 mg of cytosolic protein preparations

| Binder | binding (GFP-EXOC1 [1]) | binding [2] | binding (GFP-EXOC1 [3]) |
| --- | --- | --- | --- |
| Flag-DISC1 (Disrupted-in-schizophrenia-1) (protein, UniProt Q9NRI5 1-854) MPGGGPQGAPAAAGGGGVSHRAGSRDCLPPAACFRRRRLARRPGYMRSSTGPGIGFLSPAVGTLFRFPGGVSGEESHHSESRARQCGLDSRGLLVRSPVSKSAAAPTVTSVRGTSAHFGIQLRGGTRLPDRLSWPCGPGSAGWQQEFAAMDSSETLDASWEAACSDGARRVRAAGSLPSAELSSNSCSPGCGPEVPPTPPGSHSAFTSSFSFIRLSLGSAGERGEAEGCPPSREAESHCQSPQEMGAKAASLDGPHEDPRCLSRPFSLLATRVSADLAQAARNSSRPERDMHSLPDMDPGSSSSLDPSLAGCGGDGSSGSGDAHSWDTLLRKWEPVLRDCLLRNRRQMEVISLRLKLQKLQEDAVENDDYDKAETLQQRLEDLEQEKISLHFQLPSRQPALSSFLGHLAAQVQAALRRGATQQASGDDTHTPLRMEPRLLEPTAQDSLHVSITRRDWLLQEKQQLQKEIEALQARMFVLEAKDQQLRREIEEQEQQLQWQGCDLTPLVGQLSLGQLQEVSKALQDTLASAGQIPFHAEPPETIRSLQERIKSLNLSLKEITTKVCMSEKFCSTLRKKVNDIETQLPALLEAKMHAISGNHFWTAKDLTEEIRSLTSEREGLEGLLSKLLVLSSRNVKKLGSVKEDYNRLRREVEHQETAYETSVKENTMKYMETLKNKLCSCKCPLLGKVWEADLEACRLLIQSLQLQEARGSLSVEDERQMDDLEGAAPPIPPRLHSEDKRKTPLKVLEEWKTHLIPSLHCAGGEQKEESYILSAELGEKCEDIGKKLLYLEDQLHTAIHSHDEDLIQSLRRELQMVKETLQAMILQLQPAKEAGEREAAASCMTAGVHEAQA | binds | binds | binds |
| DISC1 fragment, residues 1-350 (domain or fragment, UniProt Q9NRI5 1-350) MPGGGPQGAPAAAGGGGVSHRAGSRDCLPPAACFRRRRLARRPGYMRSSTGPGIGFLSPAVGTLFRFPGGVSGEESHHSESRARQCGLDSRGLLVRSPVSKSAAAPTVTSVRGTSAHFGIQLRGGTRLPDRLSWPCGPGSAGWQQEFAAMDSSETLDASWEAACSDGARRVRAAGSLPSAELSSNSCSPGCGPEVPPTPPGSHSAFTSSFSFIRLSLGSAGERGEAEGCPPSREAESHCQSPQEMGAKAASLDGPHEDPRCLSRPFSLLATRVSADLAQAARNSSRPERDMHSLPDMDPGSSSSLDPSLAGCGGDGSSGSGDAHSWDTLLRKWEPVLRDCLLRNRRQMEV | – | binds | – |
